{
  "source": "patent US9790196B2",
  "about": "“Lysine demethylase inhibitors for diseases and disorders associated with Flaviviridae” (Oryzon Genomics, S.A., priority 2010, dated 2017)",
  "test_system": "H3K4 methylation in SH-SY5Y cells",
  "test": "Western blot for dimethylated H3K4 in SH-SY5Y cells",
  "format": "cell-based",
  "conditions": "100 μM, 1, 2 and 3 days",
  "description": "[…]. B-actin was used as a loading control.",
  "note": "At least one compound was matched to its structure with a doubt left.",
  "data": [
    {"molecule": "NC(=O)CNC1CC1c1ccc(OCc2ccccc2)cc1", "note": "(stereo not shown) [Dual-1]", "values": [
      {"measurement": "H3K4 methylation in cells", "result": "increases H3K4 methylation in cells in a time dependent manner"}
    ]}
  ]
}
